Earlier results in article PMC5289073, “Stable expression and functional characterisation of the diamondback moth ryanodine receptor G4946E variant conferring resistance to diamide insecticides” (Scientific Reports, 2015).

System: H. virescens RyR
Settings: cited from earlier work

CC(C)[C@@]1(O)[C@@H](OC(=O)c2ccc[nH]2)[C@@]2(O)[C@@]3(C)C[C@]4(O)O[C@@]5([C@H](O)[C@@H](C)CC[C@]35O)[C@@]2(O)[C@@]14C [ryanodine]
Bmax (H. virescens native membrane preparations, different study): 1 to 1.5 pmol/mg | Bmax (native preparation of H. virescens RyR): 2.41 ± 0.17 pmol/mg

Read-outs that look alike come from different tables or passages of the source.
